Measured values: PubChem BioAssay AID2685 (National Center for Advancing Translational Sciences (NCATS), 2010)
The list shows a part of the results. The main result of the screen is listed elsewhere. These columns were measured beside it and carry no call. Compounds called inactive in the main read-out are mostly missing here. Potencies come from curve fits of mixed quality, noted in brackets.

Assay: qHTS Assay for Lipid Storage Modulators in Drosophila S3 Cells;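 on cell number change: cells counted by Cell Tracker Red CMTPX staining in the red channel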
Details: BODIPY lipid droplet fluorescence, 18-24 h; for cell number change: measured here: cell count max response, cells fed with added oleic acid
How it was run: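 Drosophila S3 cells got compounds at several concentrations plus oleic acid (400 uM solution). Laser-scanning cytometry with 488 nm excitation read lipid droplets at 500-530 nm and cells at 575-640 nm. Percent activity was relative to 20 uM Triacsin C.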

[1] = measured here: cell number channel AC50, cells fed with added oleic acid
[2] = measured here: lipid fluorescence (Fed channel) AC50, cells fed with added oleic acid

Structure (SMILES)	cell number change	AC50 [1]	AC50 [2]
Cc1noc(/C=C/c2ccco2)c1S(=O)(=O)N1CCC(C(=O)Nc2ccc(Cl)cn2)CC1	-12.1%	1.84 µM [falling, partial curve, poor fit]	6.51 µM [rising, single point]
COc1cccc(-n2nnnc2S(C)(=O)=O)c1	-74.1%	29.1 µM [falling, single point]	16.4 µM [falling, partial curve]
O=C(Cc1ccccc1)Nc1ccc(NC(=S)NC(=O)c2ccccc2)cc1	5.68%		0.259 µM [rising, partial curve, poor fit]
Cc1cc2nc3n(c2cc1C)CC1CC(C(=O)NCCC(C)C)N(C)C31 (stereo unspecified)	26.2%		29.1 µM [rising, single point]
CCc1ccc2c(COC(=O)C3CC(=O)N(CCc4ccccc4)C3)cc(=O)oc2c1 (stereo unspecified)	15.7%		
O=C(O)CCCCCCCCCCCNC(=O)NC12CC3CC(CC(C3)C1)C2	-30.4%	32.6 µM [falling, single point]	14.6 µM [falling, single point]
CCOC(=O)c1ccc(CSC(=N)N)o1	3.39%		
COc1ccccc1-c1nnc(SC(C)C(=O)N2CCOCC2)o1 (stereo unspecified)	37.3%	8.2 µM [rising, partial curve]	
CC(=O)c1ccc(NC(=O)COC(=O)c2c3c(nc4ccccc24)/C(=C\c2cccs2)CCC3)cc1	-67.7%	6.51 µM [falling, partial curve]	4.11 µM [falling, full curve, poor fit]
CC1CCC2C(=O)N(c3ccc(C(=O)NCc4ccccc4)cc3)C(=O)C2C1 (stereo unspecified)	-30.3%	29.1 µM [falling, single point]	29.1 µM [falling, single point]
CCCn1nnnc1NCc1cccc(OC)c1	-0.525%		6.51 µM [rising, single point]
Cc1cccc(N2C(=O)c3cccc4c(N(C)CCO)ccc(c34)C2=O)c1	-107%	7.31 µM [falling, partial curve]	6.51 µM [falling, partial curve]
C/C(CC(=O)Nc1cccc2c1CCCC2)=N\NC(=O)c1cccc2ccccc12	11.7%	6.51 µM [rising, single point]	
CC(C)C(C)NC(=O)COc1ncnc2ccccc12 (stereo unspecified)	25.2%	0.259 µM [falling, full curve, poor fit]	23.1 µM [falling, partial curve]
O=C(Nc1ccc(Cl)cc1)N1CCOC12CCC1(CC2)OCCO1	15.7%		16.4 µM [rising, partial curve]
CC(C)C(=O)Nc1ccc(C(=O)N2CCCCCC2)cc1	10.1%		0.58 µM [falling, single point]
Cc1ccc(/C=C(\NC(=O)c2ccccc2)C(=O)NCC2CCCO2)o1 (stereo unspecified)	6.37%		
Cc1ccc(-n2c3c(cc(C(=O)Nc4cccc(C)n4)c2=O)C(=O)CCC3)cc1	9.99%		5.8 µM [rising, single point]
O=C(Nc1ccc(N2CCOCC2)cc1N1CCOCC1)c1ccc(Cl)cc1			29.1 µM [falling, single point]

Structure (SMILES)	cell number change	AC50 [1]	AC50 [2]
Cn1ncc(S(=O)(=O)Cc2ccccc2)c(Cl)c1=O	-41.4%	16.4 µM [falling, single point]	18.4 µM [falling, partial curve, poor fit]
CC(=O)c1nc(N2C(=O)CC(Cc3ccccc3)C2=O)sc1C (stereo unspecified)	-18.8%		2.91 µM [falling, single point]
O=C1CC(N2CCN(c3ccccc3Cl)CC2)C(=O)N1c1ccc(F)cc1 (stereo unspecified)	86.4%	29.1 µM [rising, single point]	3.26 µM [rising, full curve, poor fit]
COc1ccc(S(=O)(=O)NCc2ccc3c(c2)OCO3)cc1OC	41.4%		
Cc1ccc(-c2nc3ccsc3c(=O)o2)cc1	-35.5%	8.2 µM [falling, partial curve]	2.06 µM [falling, partial curve, poor fit]
Cc1nn(Cc2c(Cl)cccc2Cl)c(C)c1NC(=O)CCCn1nc(C)c([N+](=O)[O-])c1C	98%	18.4 µM [rising, single point]	0.517 µM [rising, single point]
Nc1[nH]nc2nc(NCc3ccccc3)c3c(c12)CCN(Cc1ccccc1)C3	-23.5%		2.06 µM [rising, single point]
CC(C)CN(C(=O)CSc1nnc(C2CC2)n1-c1ccccc1)C1CCS(=O)(=O)C1 (stereo unspecified)	-5.78%		3.66 µM [falling, single point]
O=C(NC(Cc1c[nH]c2ccccc12)C(=O)OCC(=O)c1cccc2ccccc12)c1cccs1 (stereo unspecified)	10%		6.51 µM [rising, partial curve, poor fit]
CN1CCN(C(=O)/C=C\c2ccc(Cl)cc2)CC1			0.00517 µM [falling, full curve, poor fit]
COC(CNC(=O)c1ccc2nc3ccccc3c(=O)n2c1)OC	-28.2%	3.26 µM [falling, full curve, poor fit]	
CN(C)c1ccc(C(C(=O)NCc2ccccc2)N(Cc2ccco2)C(=O)c2snc(C(N)=O)c2N)cc1 (stereo unspecified)	-52.6%	1.46 µM [falling, full curve]	
COc1ccccc1N1CCN(CCCCOc2c(OC)cccc2OC)CC1	-1.56%		0.731 µM [falling, full curve, poor fit]
O=C1C2CC=CCC2C(=O)N1c1n[nH]c(CCc2ccccc2)n1 (stereo unspecified)	12.2%		
O=C(COC(=O)/C=C/c1ccc(OC(F)F)cc1)Nc1ccc(S(=O)(=O)N2CCCC2)cc1		0.58 µM [rising, single point]	32.6 µM [falling, single point]
N#CC1(NC(=O)COC(=O)c2nccnc2N)CCCCC1			5.8 µM [rising, single point]
CCC(C)[C@@H](NC(=O)OC(C)(C)C)c1nnc(S(=O)(=O)Cc2cccc(C)c2)o1 (stereo partly specified)	-88.9%	25.9 µM [falling, partial curve]	25.9 µM [falling, partial curve]
CC(=O)OC1=Cc2c(ccc3ccc(=O)oc23)OC1(C)C	37.1%	11.6 µM [rising, single point]	
CCC(=O)NC(=S)Nc1cccc(Cl)c1N1CCCCC1	34.2%		29.1 µM [rising, single point]

Part of the list above, set out differently.
Structure (SMILES) | cell number change | AC50 [1] | AC50 [2]
COC(CNC(=O)c1ccc2nc3ccccc3c(=O)n2c1)OC | -28.2% | 3.26 µM [falling, full curve, poor fit] | 
CN(C)c1ccc(C(C(=O)NCc2ccccc2)N(Cc2ccco2)C(=O)c2snc(C(N)=O)c2N)cc1 (stereo unspecified) | -52.6% | 1.46 µM [falling, full curve] | 
COc1ccccc1N1CCN(CCCCOc2c(OC)cccc2OC)CC1 | -1.56% |  | 0.731 µM [falling, full curve, poor fit]

Carrying on.

Structure (SMILES)	cell number change	AC50 [1]	AC50 [2]
c1ccc2c(Cn3ccnc3)cccc2c1	6.63%		6.51 µM [rising, single point]
COc1ccccc1N1CCN(Cc2cc(=O)c(OCC(=O)NC(C)C)co2)CC1	-9.07%		25.9 µM [rising, single point]
COc1cc(OC)c2c(c1)C(=O)c1cc(OC)cc(OC)c1C2=O	-11.1%		2.06 µM [rising, partial curve]
Cn1c(NC(=O)C[n+]2cc(-c3ccc(Cl)c(Cl)c3)n3c2CCC3)cc(=O)n(C)c1=O	-12.7%		3.26 µM [falling, full curve, poor fit]
CCOC(=O)c1c(SCC(=O)Nc2nc(C)cs2)nc(=O)[nH]c1C			0.651 µM [falling, full curve]
CCOC(=O)C(C)Oc1ccc(C2NC(=O)NC(C)=C2C(=O)Nc2ccccc2C)cc1 (stereo unspecified)	-14.4%		
Cc1sc2ncnc(SCC(=O)N3CCCCC3)c2c1C	-18.1%		29.1 µM [falling, partial curve, poor fit]
Cc1cc(NC(=O)c2ccccc2C)no1	0.824%		0.103 µM [falling, full curve, poor fit]
CCOC(=O)C1=C(C)N(CCCC(=O)O)C(=O)NC1c1ccc(Cl)cc1 (stereo unspecified)	4.49%		0.651 µM [falling, full curve, poor fit]
CN(C)S(=O)(=O)c1cccc(NC(=O)c2sccc2-c2ccccc2)c1	6.49%		
Cc1nc(NC(=O)/C=C/c2ccccc2)sc1C(=O)N(C)C	45.4%	7.31 µM [rising, partial curve]	9.2 µM [rising, partial curve]
Cc1csc(NC(=O)CCC(=O)N(CC(=O)NC2CCCC2)c2ccccc2)n1	-0.451%		6.51 µM [rising, single point]
Cc1ccc(C(=O)COC(=O)CNC(=O)Cc2ccccc2)cc1[N+](=O)[O-]	25.4%		
CC(=O)NC1C(=O)N(CC(C)C)c2ccccc21 (stereo unspecified)	-103%	29.1 µM [falling, single point]	
O=C(C1CCCN(Cc2ccc(F)cc2)C1)N1CCCCC1 (stereo unspecified)	1.77%		0.13 µM [falling, full curve, poor fit]
COc1cc(/C=C/C(=O)OCC(=O)Nc2ccc3c(c2)OCCO3)ccc1O	22.6%		29.1 µM [rising, single point]
COc1ccc(C(c2c[nH]c3ccccc23)c2c[nH]c3ccccc23)cc1O	-50.4%	32.6 µM [falling, single point]	29.1 µM [falling, single point]
CCOC(=O)CNC(=O)N1c2ccccc2Sc2ccccc21	7.76%		0.58 µM [falling, full curve]
COc1ccc(-n2ccnc2CN2CCN(C3CCCC3)C(CCO)C2)cc1 (stereo unspecified)	8.01%		6.51 µM [falling, single point]
